These are yes or no findings as the source states them, for the method shown. Binding seen in cells or lysates may run through a third protein. Some binding calls cover weakened binding; strength is not graded here.
Molecular target: APJ-LgBit (human) (UniProt P35414)
Assay: split reporter; NanoBiT in live HEK293T cells transiently co-transfected with LgBit and SmBit fusions; 48 h after transfection, serum-free DMEM 3.5 h, furimazine substrate; stimulated with 1 μM apelin or ELA or PBS (series 0.1 nM to 10 μM); luminescence followed up to 60 min

By UniProt entry, the sequences of proteins in these tests, tags left out. Residues count along the entry.
UniProt P35414: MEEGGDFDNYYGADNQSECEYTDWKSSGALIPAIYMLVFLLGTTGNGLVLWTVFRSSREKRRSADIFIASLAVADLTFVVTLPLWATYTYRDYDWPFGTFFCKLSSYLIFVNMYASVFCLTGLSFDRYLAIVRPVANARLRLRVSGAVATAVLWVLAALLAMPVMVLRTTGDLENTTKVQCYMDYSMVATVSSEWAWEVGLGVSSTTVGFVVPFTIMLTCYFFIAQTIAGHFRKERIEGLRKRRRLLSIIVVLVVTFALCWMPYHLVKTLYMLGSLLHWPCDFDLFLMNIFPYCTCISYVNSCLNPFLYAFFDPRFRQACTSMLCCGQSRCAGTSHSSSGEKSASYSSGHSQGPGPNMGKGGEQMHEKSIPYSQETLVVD
UniProt P49407, residues 2-418: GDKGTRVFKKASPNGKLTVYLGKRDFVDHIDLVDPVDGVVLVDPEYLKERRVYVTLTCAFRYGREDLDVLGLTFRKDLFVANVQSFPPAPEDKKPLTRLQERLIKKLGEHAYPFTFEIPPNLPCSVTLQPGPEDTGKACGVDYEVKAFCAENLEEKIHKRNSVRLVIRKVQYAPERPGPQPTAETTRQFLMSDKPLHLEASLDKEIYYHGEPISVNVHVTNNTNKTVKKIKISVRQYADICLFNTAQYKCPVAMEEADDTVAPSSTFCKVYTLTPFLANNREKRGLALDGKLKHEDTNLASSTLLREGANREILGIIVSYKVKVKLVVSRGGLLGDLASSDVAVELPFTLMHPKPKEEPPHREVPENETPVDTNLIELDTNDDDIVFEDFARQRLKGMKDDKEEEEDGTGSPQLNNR

binding: binds
Substance: SmBit-ARRB1 (from UniProt P49407 2-418)
